8 molecules from PMC8479045 can be followed below.

Substitutions are numbered along the chain they refer to. Names and notes keep the numbering of the source. Results are given in words; binding and its absence hold for the method and conditions named. For some assays here: In cells and extracts the contact can be indirect. Some entries that bind do so weakly or less than the wild type. For some assays here: Sequences can lack the tags named with a protein.

Experiment [1] has as its target T1, TSEN15–34 heterodimer (full length) (human) (UniProt Q8WW01+Q9BSV6).
T1 sequence 1: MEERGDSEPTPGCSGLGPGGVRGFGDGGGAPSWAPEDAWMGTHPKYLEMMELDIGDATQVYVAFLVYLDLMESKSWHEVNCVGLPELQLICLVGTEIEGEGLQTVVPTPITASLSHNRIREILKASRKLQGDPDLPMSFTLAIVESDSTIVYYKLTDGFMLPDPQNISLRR
T1 sequence 2: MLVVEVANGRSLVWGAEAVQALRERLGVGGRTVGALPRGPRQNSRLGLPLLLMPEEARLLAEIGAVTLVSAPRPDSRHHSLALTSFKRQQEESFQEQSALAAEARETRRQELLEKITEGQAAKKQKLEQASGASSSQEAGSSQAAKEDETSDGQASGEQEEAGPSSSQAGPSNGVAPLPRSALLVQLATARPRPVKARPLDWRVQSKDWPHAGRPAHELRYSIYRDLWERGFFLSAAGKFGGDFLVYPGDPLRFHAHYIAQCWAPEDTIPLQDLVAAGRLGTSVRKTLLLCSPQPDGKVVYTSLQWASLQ
Description: native MS; purified wt TSEN (1.09 mg/ml) and wt TSEN/CLP1 (1.88 mg/ml) from insect cells, exchanged into 200 mM ammonium acetate pH 7.5; Q-ToF modified for high-mass complexes; both purified.

The target in experiment [2] is T1, TSEN15–34 heterodimer (full length) (human). Description: SEC; purified TSEN15–34 and TSEN2–54 heterodimers mixed, then size exclusion chromatography; both purified. In general terms: SEC sorts molecules by how far they enter the pores of the column.
For experiment [3], the target named is T2, endogenous TSEN34 of human fibroblasts (human (endogenous in primary skin fibroblasts)) (UniProt Q9BSV6).
T2 sequence: T1 sequence 2
The experiment in a line: co-IP; α-TSEN34 peptide antibody cross-linked to agarose beads; total lysates of control, heterozygous and homozygous TSEN54 c.919 G>T fibroblasts, 90 min at 4 °C; washes in 20 mM Tris-HCl pH 7.5, 150 mM NaCl, 10% glycerol, 0.1% NP40, 2 mM MgCl2; immunoblot. (In western blotting, separated proteins are transferred to a membrane and probed.)

Experiment [4] has as its target T3, His6-tagged TSEN15 of the inactive tetrameric TSEN complex (human) (UniProt Q8WW01).
T3 sequence: T1 sequence 1
The experiment in a line: pull-down; 8 µg purified inactive His-tagged tetrameric TSEN (His6 on TSEN15) captured on protein G agarose with α-His antibody, 50 mM HEPES-NaOH pH 7.4, 400 mM then 100 mM NaCl, 4 °C; TSEN subunits by immunoblot (set-up of the tRNA pull-down); both purified.

Experiment [5] addresses T4, TSEN15 co-expressed in HEK293 cells (bait of the pull-down of Fig. 4a) (human), Q8WW01.
T4 chain: T1 sequence 1
The experiment in a line: pull-down; wt and mutant TSEN complexes co-expressed in HEK293 cells; pull-down via TSEN15; immunoblot. The settings on record: remark: other sources report otherwise.

Experiment [6] concerns the target T5, TSEN15, wild type, full length (pull-down of Fig. 3e) (human) (UniProt Q8WW01).
T5 sequence: T1 sequence 1
The experiment in a line: pull-down; full-length TSEN34 with wt TSEN15 or TSEN15 H116Y; input and co-precipitated proteins by SDS-PAGE and immunoblot; bait, host and buffer not described.

Experiment [7] has as its target T6, TSEN15 carrying the H116Y mutation, full length (pull-down of Fig. 3e) (human) (UniProt Q8WW01).
T6 sequence: T1 sequence 1 with H116Y
Described as above.

Experiment [8] addresses T7, tRNA splicing endonuclease subunit TSEN15 (human) (UniProt Q8WW01).
T7 sequence: T1 sequence 1
Description: native MS; purified wt TSEN (1.09 mg/ml) and wt TSEN/CLP1 (1.88 mg/ml) from insect cells, exchanged into 200 mM ammonium acetate pH 7.5; Q-ToF modified for high-mass complexes; both purified.

In experiment [9] the target is T7, tRNA splicing endonuclease subunit TSEN15 (human). The experiment in a line: co-expression and co-purification; combinatorial co-expression in Sf21 cells; Ni-NTA, heparin (left out for TSEN15–34), TEV cleavage, SEC on Superdex 200 Increase in 50 mM HEPES-NaOH pH 7.4, 400 mM NaCl; SDS-PAGE of purified complexes.

B1: TSEN2–54 heterodimer (complex, UniProt Q8NCE0 1-465; Q7Z6J9 1-526)
chain 1: MAEAVFHAPKRKRRVYETYESPLPIPFGQDHGPLKEFKIFRAEMINNNVIVRNAEDIEQLYGKGYFGKGILSRSRPSFTISDPKLVAKWKDMKTNMPIITSKRYQHSVEWAAELMRRQGQDESTVRRILKDYTKPLEHPPVKRNEEAQVHDKLNSGMVSNMEGTAGGERPSVVNGDSGKSGGVGDPREPLGCLQEGSGCHPTTESFEKSVREDASPLPHVCCCKQDALILQRGLHHEDGSQHIGLLHPGDRGPDHEYVLVEEAECAMSEREAAPNEELVQRNRLICRRNPYRIFEYLQLSLEEAFFLVYALGCLSIYYEKEPLTIVKLWKAFTVVQPTFRTTYMAYHYFRSKGWVPKVGLKYGTDLLLYRKGPPFYHASYSVIIELVDDHFEGSLRRPLSWKSLAALSRVSVNVSKELMLCYLIKPSTMTDKEMESPECMKRIKVQEVILSRWVSSRERSDQDDL
chain 2: MEPEPEPAAVEVPAGRVLSARELFAARSRSQKLPQRSHGPKDFLPDGSAAQAERLRRCREELWQLLAEQRVERLGSLVAAEWRPEEGFVELKSPAGKFWQTMGFSEQGRQRLHPEEALYLLECGSIHLFHQDLPLSIQEAYQLLLTDHTVTFLQYQVFSHLKRLGYVVRRFQPSSVLSPYERQLNLDASVQHLEDGDGKRKRSSSSPRSINKKAKALDNSLQPKSLAASSPPPCSQPSQCPEEKPQESSPMKGPGGPFQLLGSLGPSPGPAREGVGCSWESGRAENGVTGAGKRRWNFEQISFPNMASDSRHTLLRAPAPELLPANVAGRETDAESWCQKLNQRKEKLSRREREHHAEAAQFQEDVNADPEVQRCSSWREYKELLQRRQVQRSQRRAPHLWGQPVTPLLSPGQASSPAVVLQHISVLQTTHLPDGGARLLEKSGGLEIIFDVYQADAVATFRKNNPGKPYARMCISGFDEPVPDLCSLKRLSYQSGDVPLIFALVDHGDISFYSFRDFTLPQDVGH
modifications: high degree of phosphorylation (sites not given)
On to B1, for which the binding entry in experiment [1] and in [2] was “binds” throughout.

B2: endogenous wild-type TSEN54 of control fibroblasts (protein, UniProt Q7Z6J9 1-526)
chain: B1 chain 2
Consider B2, for which, in [3], the binding entry is given as “binds”.

B3: endogenous TSEN2 of human fibroblasts (protein, UniProt Q8NCE0 1-465)
chain: B1 chain 1
As to B3, in experiment [3], the binding entry was “binds”.

B4: TSEN2 H377A (subunit of inactive TSEN) (protein, UniProt Q8NCE0 1-465)
chain: B1 chain 1 with H377A
Consider B4, for which the binding result in [4] is given as “binds”.

B5: TSEN54 co-expressed in HEK293 cells, Q7Z6J9 1-526 (protein)
chain: B1 chain 2
In the case of B5, the binding entry in experiment [5] is “binds”.

B6: TSEN34, full length (pull-down of Fig. 3e) (protein, UniProt Q9BSV6 1-310)
chain: T1 sequence 2
For B6, the binding result in experiment [6] and in [7] was “binds” throughout.

B7: TSEN34 H255A (subunit of inactive TSEN) (protein, UniProt Q9BSV6 1-310)
chain: T1 sequence 2 with H255A
B7: the binding entry in experiment [4] is on record as “binds”.

B8: tRNA splicing endonuclease subunit TSEN34 (protein, UniProt Q9BSV6 1-310)
chain: T1 sequence 2
On to B8, for which the binding result in experiment [8] and in experiment [9] was “binds” each time.
